## Cell number after 72 h of treatment

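The test systems are human melanoma cell lines, treated with two drugs together for 72 h and then stained and imaged. Values are the number of DAPI-stained nuclei as a percentage of the DMSO control: 100 is no effect, lower means fewer cells. Every drug was used at one fixed concentration, the higher of two screened. The file gives one value for each pair and line, without errors, so small differences may be noise.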
An unselected part of the screen is shown.
An entry leaves out what has no value listed here.
A dash means that no value is listed here.

Drug key:
dorsomorphin, 2 µM: c1cc(-c2cnn3cc(-c4ccc(OCCN5CCCCC5)cc4)cnc23)ccn1
embelin, 6 µM: CCCCCCCCCCCC1=C(O)C(=O)C=C(O)C1=O
AS-252424, 5 µM: O=C1NC(=O)/C(=C/c2ccc(-c3ccc(F)cc3O)o2)S1
GSK0660, 5 µM: COC(=O)c1sccc1S(=O)(=O)Nc1ccc(Nc2ccccc2)cc1OC
T0901317, 7 µM: O=S(=O)(c1ccccc1)N(CC(F)(F)F)c1ccc(C(O)(C(F)(F)F)C(F)(F)F)cc1
NVP-TAE684, 0.4 µM: COc1cc(N2CCC(N3CCN(C)CC3)CC2)ccc1Nc1ncc(Cl)c(Nc2ccccc2S(=O)(=O)C(C)C)n1
TCS401, 8.33 µM: O=C(O)C(=O)Nc1sc2c(c1C(=O)O)CCNC2
A-769662, 10 µM: N#Cc1c(O)c2c(-c3ccc(-c4ccccc4O)cc3)csc2[nH]c1=O
BI-D1870, 1 µM: CC(C)CCN1c2nc(Nc3cc(F)c(O)c(F)c3)ncc2N(C)C(=O)C1C (configuration not stated)

| Drugs | A375 | C32 | COLO 829 | A101D | COLO 800 | IPC-298 | COLO 792 | G-361 | A2058 | 501mel |
|---|---|---|---|---|---|---|---|---|---|---|
| A-769662 + TCS401 | 203 | 107 | 98.1 | 111 | 169 | 107 | 110 | 108 | 116 | 80.6 |
| A-769662 + embelin | 102 | 97.7 | 93.8 | 122 | 92.1 | 98.6 | 125 | 102 | 99.2 | 91.9 |
| dorsomorphin + T0901317 | 72.1 | 48.6 | 64.0 | 53.1 | 62.5 | 73.3 | 57.7 | 34.1 | 55.3 | 42.4 |
| T0901317 + A-769662 | 120 | 94.5 | 92.8 | 89.2 | 75.6 | 85.5 | 83.0 | 87.3 | 99.4 | - |
| BI-D1870 + A-769662 | 112 | 112 | 134 | 90.5 | 85.0 | 96.8 | 102 | 94.1 | 121 | 90.2 |
| dorsomorphin + AS-252424 | 93.9 | 63.0 | 127 | 105 | 100 | 85.5 | 81.9 | 67.1 | 89.2 | 68.4 |
| AS-252424 + A-769662 | 151 | 107 | 96.4 | 111 | 133 | 103 | 114 | 82.1 | 101 | 73.9 |
| BI-D1870 + embelin | 125 | 86.1 | 99.3 | 68.5 | 119 | 73.4 | 74.5 | 69.2 | 112 | 81.6 |
| GSK0660 + AS-252424 | 97.6 | 85.4 | 98.2 | 94.5 | 73.5 | 91.1 | 77.1 | 79.5 | 93.6 | 114 |
| T0901317 + BI-D1870 | 108 | 73.0 | 104 | 72.5 | 58.7 | 67.9 | 78.7 | 57.0 | 102 | 56.1 |
| embelin + TCS401 | 161 | 81.0 | 77.2 | 97.7 | 77.7 | 104 | 87.6 | 84.6 | 96.9 | 85.8 |
| BI-D1870 + AS-252424 | 121 | 87.0 | 94.0 | 68.8 | 111 | 69.6 | 82.0 | 45.7 | 92.1 | 64.8 |
| embelin + dorsomorphin | 93.1 | 59.7 | 83.8 | 87.8 | 106 | 62.9 | 69.6 | 47.9 | 88.6 | - |
| GSK0660 + TCS401 | 163 | 88.5 | 94.3 | 87.6 | 109 | 89.0 | 94.3 | 92.5 | 94.1 | - |
| GSK0660 + T0901317 | 97.4 | 103 | 76.7 | 92.2 | 85.3 | 68.9 | 78.6 | 62.6 | 96.5 | 61.2 |
| embelin + AS-252424 | 122 | 96.1 | 76.3 | 94.0 | 47.2 | 62.3 | 69.6 | 69.1 | 102 | - |
| NVP-TAE684 + dorsomorphin | 61.7 | 60.6 | 81.7 | 83.9 | 47.2 | 86.6 | 74.6 | 52.3 | 58.3 | 58.3 |
| AS-252424 + T0901317 | 83.5 | 89.1 | 84.4 | 94.4 | 88.4 | 75.0 | 76.0 | 60.9 | 110 | 63.3 |
| T0901317 + TCS401 | 143 | 97.8 | 108 | 114 | 76.1 | 92.8 | 118 | 115 | 101 | 72.9 |
| GSK0660 + dorsomorphin | 96.6 | 65.2 | 84.1 | 79.3 | 64.3 | 85.6 | 80.1 | 49.3 | 80.6 | 56.7 |
| BI-D1870 + NVP-TAE684 | 109 | 75.2 | 101 | 52.4 | 19.3 | 87.1 | 78.0 | 72.9 | 67.3 | 63.6 |
| embelin + NVP-TAE684 | 110 | 83.7 | 66.1 | 102 | 75.8 | 80.0 | 66.1 | 57.9 | 73.1 | 73.1 |
| GSK0660 + BI-D1870 | 91.5 | 87.9 | 107 | 71.2 | 52.1 | 78.9 | 79.0 | 65.4 | 90.8 | 92.5 |
| GSK0660 + A-769662 | 113 | 88.6 | 112 | 159 | 85.0 | 93.2 | 105 | 93.2 | 97.5 | - |
| GSK0660 + embelin | 109 | 117 | 75.1 | 99.9 | 95.9 | 80.7 | 90.8 | 64.9 | 97.6 | 116 |
| dorsomorphin + TCS401 | 119 | 68.8 | 70.2 | 92.1 | 78.4 | 84.6 | 69.5 | 63.1 | 75.3 | 88.8 |
| TCS401 + NVP-TAE684 | 131 | 100 | 104 | 96.1 | 53.0 | 102 | 107 | 98.3 | 75.1 | - |
| T0901317 + NVP-TAE684 | 92.5 | 63.4 | 88.7 | 94.2 | 74.6 | 76.8 | 70.9 | 61.6 | 79.1 | 51.6 |

The first 2 entries again:

- A-769662 + TCS401 | A375: 203; C32: 107; COLO 829: 98.1; A101D: 111; COLO 800: 169; IPC-298: 107; COLO 792: 110; G-361: 108; A2058: 116; 501mel: 80.6
- A-769662 + embelin | A375: 102; C32: 97.7; COLO 829: 93.8; A101D: 122; COLO 800: 92.1; IPC-298: 98.6; COLO 792: 125; G-361: 102; A2058: 99.2; 501mel: 91.9

Values as published with doi:10.1371/journal.pone.0140310, rounded.